These are literature values, as cited in patent publication US11524014B2, “Pharmaceutical formulations and systems for delivery of an androgenic agent and an aromatase inhibitor with sustained multi-phasic release profiles and methods of use” (Havah Therapeutics Pty Ltd., priority 2019, dated 2022).

Sequences of proteins named here, by UniProt entry; tags and fusion partners are left off. A change or cut given only in a name is not applied to a line headed by its entry.
UniProt P11511: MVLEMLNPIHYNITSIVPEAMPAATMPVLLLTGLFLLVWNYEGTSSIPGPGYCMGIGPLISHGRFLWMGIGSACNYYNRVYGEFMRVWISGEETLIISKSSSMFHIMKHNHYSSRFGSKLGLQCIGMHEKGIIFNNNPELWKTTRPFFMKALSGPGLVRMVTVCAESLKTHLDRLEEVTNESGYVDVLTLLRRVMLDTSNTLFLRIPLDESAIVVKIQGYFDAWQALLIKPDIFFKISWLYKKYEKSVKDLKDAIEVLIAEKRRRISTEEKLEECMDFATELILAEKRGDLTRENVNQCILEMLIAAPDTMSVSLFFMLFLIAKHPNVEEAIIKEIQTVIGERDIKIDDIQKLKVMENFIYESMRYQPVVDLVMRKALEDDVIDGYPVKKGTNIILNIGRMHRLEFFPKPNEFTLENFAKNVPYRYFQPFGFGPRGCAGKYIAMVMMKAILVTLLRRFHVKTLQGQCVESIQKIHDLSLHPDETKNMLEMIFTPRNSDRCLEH

The data set addresses aromatase, JEG3 human choriocarcinoma cell line (Homo sapiens, UniProt P11511). The conditions noted are these: JEG3 human choriocarcinoma cell line overexpressing aromatase; cited from earlier work.

For orientation: IC50 means the concentration that inhibits the measured activity by half. In the case of `CC(C)(C#N)c1cc(Cn2cncn2)cc(C(C)(C)C#N)c1` [Anastrozole, 2,2′-[5-(1H-1,2,4-triazol-1-ylmethyl)-1,3-phenylene]bis(2-methylpropanenitrile)], the IC50 is 5.66 nM.
